Reference: patent US6825230B2, “Spiro and dispiro 1,2,4-trixolane antimalarials” (Medicines for Malaria Venture MMV, priority 2002, dated 2004)
At least one structure is not confirmed: it was looked up by name or label, or the drawing left a doubt. Some of these results come from one statement about several compounds together.

System: P. berghei ANKA strain
Experiment: Divided 3x3 mg/kg and 3x1 mg/kg po doses in infected mice
Type: in vivo, Plasmodium berghei
Details: for Cures: 3 × 3 mg/kg p.o. SSV, cured mice\mice in group, survival to day 30 post-infection = cure
Method: Moro NMRI male mice (Fu Albino specific pathogen free) weighing 18±2 g were infected intravenously (i.v.) with 2×10^7 P. berghei ANKA strain-infected erythrocytes from donor mice on day 0 of the experiment. From donor mice with circa 30% parasitemia, heparinized blood was taken and diluted in physiological saline to 10^8 parasitized erythrocytes per ml. An aliquot (0.2 ml) of this suspension was injected i.v. into experimental and control groups of mice. […] Throughout the experiments, mice were kept in groups of three or five animals in Makrolon type II cages in an air-conditioned animal room at 22 to 23° C.
They were administered per os (p.o.) in a total volume of 0.01 ml per gram of mouse. The activity of the compound was determined by a variety of methods outlined in subsequent sections. Survival time was also recorded, and survival to day 30 post-infection was considered to be a cure.
The second experiment consists of administration of divided 3×3 mg/kg and 3×1 mg/kg po doses administered on days 1, 2, and 3 post-infection. On day 4 post-infection, blood smears of all animals were prepared and stained with Giemsa. […] Compounds were administered orally in the SSV vehicle.

Structure (SMILES) | Cures | Activity at the 3×1 mg/kg dose (1 mg/kg po (SSV) on days 1, 2, 3 post-infection, parasitemia reduction on day 4)
C[C@H]1[C@H](OC(=O)CCC(=O)O)O[C@@H]2O[C@@]3(C)CC[C@H]4[C@H](C)CC[C@@H]1[C@@]24OO3 [AS, artesunate, reference compound] | 0\5 | 
OC(c1cc(C(F)(F)F)nc2c(C(F)(F)F)cccc12)C1CCCCN1 (stereo not drawn) [MFQ, mefloquine, reference compound] | 0\5 | 
NC[C@H]1CC[C@]2(CC1)OOC1(O2)C2CC3CC(C2)CC1C3 (stereo partly drawn) [OZ209] |  | greater than 99%
